Data as given in PubChem BioAssay AID1259425 (University of Nebraska Medical Center, 2018)

Aim: 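Seek colon cancer weak points whose silencing resembles KSR1 loss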 (primary screen)
Cell system: HCT116 human colon cancer cells
Reagent: siRNA pool against human genes, 50 nM siRNA
Detection: 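After 50 nM siRNA pool, branched-DNA assay measures six marker transcripts per well, minus blank, normalised to the geometric mean of two housekeeping transcripts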
Direction: BNIP3L mRNA: higher = more BNIP3L transcript after knockdown; NDRG1 mRNA: higher = more NDRG1 transcript after knockdown
The whole screen tested about 14,000 reagents; this is a random part of them. Not all columns of the deposit are shown. The record does not give: the time to read-out.

What is on record for WHR1?
BNIP3L mRNA, set 1: 0.104; NDRG1 mRNA, set 1: 0.172

For INE1, how do the results read?
BNIP3L mRNA, set 1: 0.108; NDRG1 mRNA, set 1: 0.184

With MYF6, what was measured?
BNIP3L mRNA, set 1: 0.152; NDRG1 mRNA, set 1: 0.0762

For LCORL, what does the deposit list?
BNIP3L mRNA, set 1: 0.0824; NDRG1 mRNA, set 1: 0.126

For MRPL34, what does the deposit list?
BNIP3L mRNA, set 1: 0.164; NDRG1 mRNA, set 1: 0.238

For WNT3A, what was measured?
BNIP3L mRNA, set 1: 0.0726; NDRG1 mRNA, set 1: 0.121

For EIF3H, what was measured?
BNIP3L mRNA, set 1: 0.0753; NDRG1 mRNA, set 1: 0.0569

With GNB5, what was measured?
BNIP3L mRNA, set 1: 0.163; NDRG1 mRNA, set 1: 1.93

For PRPF19, what does the deposit list?
BNIP3L mRNA, set 1: 0.19; NDRG1 mRNA, set 1: 1.2

How did the screen score MTUS2?
BNIP3L mRNA, set 1: 0.103; NDRG1 mRNA, set 1: 0.138

What did the screen give for FXYD7?
BNIP3L mRNA, set 1: 0.0945; NDRG1 mRNA, set 1: 0.498

What did the screen give for COMMD9?
BNIP3L mRNA, set 1: 0.0628; NDRG1 mRNA, set 1: 0.0355

Only “NDRG1 mRNA, set 1” (2 entries from above):
EIF3H = 0.0569
GNB5 = 1.93
